Some of the results follow. These are further read-outs of the screen, such as a control signal, another cell line or another target. No call is given for them. Most of these compounds were active or inconclusive in the main read-out, so they are no random draw. The note in brackets gives the kind of curve behind each potency; many fits are weak.

The nature of this assay: IkB Signaling. The settings on record: ABC-DLBCL IkBa-CBG/CBR dual luciferase ratio (green luciferase fused to IkBa over red control in OCI-Ly3 lymphoma cells), 4 h; measured here: control luc red channel unless noted. In a few lines: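 In this assay, an IκBα–CBG68 fusion accumulates when IKK-driven degradation is blocked; native CBR normalizes for cell number. OCI-Ly3 cells were treated 4 h with compound and doxycycline, then green and red light read after Chroma-Glo addition.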
In general, AC50 refers to the midpoint of the concentration-response curve, whichever way the signal moves. `CCOc1ccc(NC(=O)c2oc3ccccc3c2NC(=O)c2cc(C)cc(C)c2)cc1`: the AC50 is 20 µM [falling, single point].
On to `CCOc1ccc(NC(=O)c2cnc(Nc3ccccc3OC)c3ccccc23)cc1`, for which the AC50 is 3.16 µM [falling, full curve].
On to `N#Cc1nc(-c2ccccc2F)oc1NCc1cccc2c1OCO2`, for which the AC50 was 25.1 µM [falling, partial curve].
For `Cc1cccc(Cc2c(C)nc3nc(SCC(=O)NCc4ccccc4)nn3c2C)c1`, the AC50 is 25.1 µM [falling, partial curve].
As for `CC(C)Oc1ccc(CNC(=O)c2cccc(NC(=O)N3CCSc4ncccc43)c2)cc1`, the AC50 is 15.8 µM [falling, partial curve].
Turning to `CCC(=O)N1CCc2cc(Br)cc(S(=O)(=O)N3CCCC(C(=O)Nc4cccc(F)c4)C3)c21` (stereo unspecified), the AC50 is 15.8 µM [falling, partial curve].
For the molecule `CCOC(=O)CSc1nc2sc3c(c2c(=O)n1-c1ccccc1)CCC(C(C)(C)C)C3` (stereo unspecified), the AC50 is 3.98 µM [falling, partial curve].
As for `CCOC(=O)c1cc(-c2ccccc2)n(-c2cccc(C(=O)Nc3cc(OC)cc(OC)c3)c2)c1C`, the AC50 was 10 µM [falling, partial curve].
As to `Cc1cc(C)cc(Oc2c(C(F)(F)F)oc3cc(OCC(=O)NC4CCCCC4)ccc3c2=O)c1`, the AC50 is 0.0251 µM [rising, full curve, poor fit].
With `Cn1c(=O)oc2cc(S(=O)(=O)N3CCC(C(=O)Nc4ccc(F)c(Cl)c4)CC3)ccc21`, the AC50 was 31.6 µM [falling, partial curve].
`O=C(Nc1cccnc1)c1cc(-c2cccc(Cl)c2)on1`: the AC50 is 3.16 µM [falling, full curve].
With `O=C(NCc1ccc(F)cc1)c1cc(-c2ccc(Cl)cc2)n[nH]1`, the AC50 was 3.98 µM [falling, partial curve].
Take `CCC(C)NC(=O)CCSc1nc(-c2ccc(OC)cc2)cc(C(F)(F)F)n1` (stereo unspecified): the AC50 was 0.158 µM [rising, full curve, poor fit].
On to `CCc1ccc(S(=O)(=O)c2nnn3c2nc(Nc2ccc(F)cc2)c2cc(Cl)ccc23)cc1`, for which the AC50 was 12.6 µM [falling, partial curve].
Consider `O=C(O)c1cccc(Nc2ncnc3scc(-c4ccccc4)c23)c1`, for which the concentration at half-maximal activity (AC50) was 25.1 µM [falling, single point].
Under `CCN(CC)S(=O)(=O)c1ccc(C(=O)N2CC(=O)Nc3ccc(F)cc3C2c2ccccc2)cc1` (stereo unspecified) stands 12.6 µM [falling, partial curve]; under `CC(=O)N1c2ccc(S(=O)(=O)NCC3CCC(C(=O)Nc4cc(C)ccc4C)CC3)cc2CC1C` (stereo unspecified), 5.01 µM [falling, partial curve]; under `COc1cc(NC(=O)c2c(C)oc3c2C2=NCCN2C=N3)cc(OC)c1OC`, 31.6 µM [falling, partial curve].
Consider `COc1ccc(OCC(=O)NCc2ccc3c(c2)CCN3C(=O)c2ccc(F)cc2)cc1`, for which the AC50 was 3.98 µM [rising, partial curve].
For the molecule `CCCc1cc(C(=O)Nc2c(C)nn(Cc3c(Cl)cccc3Cl)c2C)no1`, the AC50 was 12.6 µM [falling, partial curve].
On to `Cc1cc(C)c(S(=O)(=O)Nc2ccc(-c3ccc(N4CCCCCC4)nn3)cc2)c(C)c1`, for which the AC50 was 7.94 µM [falling, partial curve].
Regarding `O=C(c1cc(-c2cccs2)on1)N1CCCc2ccccc21`, the AC50 is 20 µM [falling, partial curve].
Consider `O=S(=O)(NCC(c1cccs1)S(=O)(=O)c1ccccc1)c1ccc(F)c(C(F)(F)F)c1` (stereo unspecified), for which the AC50 was 39.8 µM [falling, single point].
The figure for `CCN(Cc1ccccc1)S(=O)(=O)c1cc(C(=O)Nc2cc(Cl)cc(Cl)c2)ccc1F` is 15.8 µM [falling, partial curve].
On to `CC(C)(C)C1CCc2c(sc(NC(=O)c3ccc(Cl)cc3)c2C(=O)NCc2ccco2)C1` (stereo unspecified), for which the AC50 was 10 µM [falling, partial curve].
With `COc1ccccc1N1CCN(c2ncnc3c2cnn3-c2cccc(Cl)c2)CC1`, the AC50 was 2.51 µM [falling, full curve].
For the molecule `CCNS(=O)(=O)c1ccc(NC(=O)Nc2cccc(C(F)(F)F)c2)cc1`, the AC50 is 25.1 µM [falling, partial curve].
As to `Cc1ccc(Cn2c(CN3CCC(C(=O)NCCc4ccccc4)CC3)cc3ccccc32)cc1`, the AC50 is 15.8 µM [falling, partial curve].
Turning to `CC(C)Sc1ncc(Cl)c(C(=O)N(Cc2ccc(N(C)C)cc2)C2CCS(=O)(=O)C2)n1` (stereo unspecified), the AC50 is 39.8 µM [falling, single point].
Under `CCc1nn(CC(=O)Nc2ccc(N(CC)CC)cc2C)c(=O)c2cc3sccc3n12` stands 39.8 µM [falling, single point]; under `N#Cc1ccc(C(=O)Nc2ccc3c(c2)N(C2CCCC2)C(=O)c2ccccc2S3)cc1`, 0.126 µM [falling, partial curve, poor fit]; under `Cc1ccc(-c2noc(-c3ccccc3NC(=O)C3CC(=O)N(c4ccccc4C)C3)n2)cc1` (stereo unspecified), 0.0794 µM [rising, full curve, poor fit].
As for `CCOC(=O)c1c(NC(=O)c2ccc(Br)o2)sc(C)c1CC`, the AC50 is 10 µM [falling, partial curve].
On to `Cc1nn(-c2ccc(N3CCCC3)nn2)c(C)c1CCC(=O)Nc1ccc(F)c(Cl)c1`, for which the AC50 is 25.1 µM [falling, partial curve].
Regarding `O=C(NCCc1nc2ccccc2n1Cc1ccc(Cl)cc1Cl)c1ccco1`, the AC50 is 39.8 µM [falling, single point].
As for `CC(C)Cn1c(=O)c2ccccc2n2c(CCC(=O)NC(C)c3ccccc3)nnc12` (stereo unspecified), the AC50 was 15.8 µM [falling, partial curve].
Under `CCOc1ccc(C2C(C(=O)Nc3ccccc3)=C(C)Nc3nc(SCc4cc(C)ccc4C)nn32)cc1` (stereo unspecified) stands 2 µM [rising, partial curve]; under `Cc1cc(C)c2nc(N(Cc3cccnc3)C(=O)c3cccs3)sc2c1`, 25.1 µM [falling, single point].
With `COc1cc(Cl)ccc1NC(=O)COc1ccccc1C(=O)N1CCN(c2ccc(O)cc2)CC1`, the AC50 was 25.1 µM [falling, partial curve].
As to `COc1cc(NS(=O)(=O)c2ccc(OC)c(C)c2C)c(OC)cc1Cl`, the AC50 was 10 µM [falling, partial curve].
As for `COc1cccc(C2=NOC(C(=O)Nc3cccc(C(C)=O)c3)C2)c1OC` (stereo unspecified), the AC50 was 15.8 µM [falling, partial curve].
Take `COc1ccc(OCc2nnc3n2N=C(c2ccc(C)cc2)CS3)cc1`: the AC50 was 39.8 µM [falling, single point].
Turning to `CCN(CC)C(=O)c1sc2c(c1C)c(=O)n(-c1ccc(OC)cc1OC)c(=O)n2CC(=O)c1ccc(Cl)cc1`, the AC50 is 3.16 µM [rising, partial curve, poor fit].
The figure for `COc1cc(NC(=O)c2oc3c(c2C)-c2nn(Cc4cccc(Cl)c4)cc2CC3)cc(OC)c1` is 3.16 µM [rising, partial curve]; for `CCOc1ccc(N(C(C)C(=O)Nc2cc(Cl)ccc2OC)S(C)(=O)=O)cc1` (stereo unspecified) it is 39.8 µM [falling, partial curve]; for `O=C(Nc1ccc(OC(F)(F)F)cc1)C1CCN(S(=O)(=O)c2cccs2)CC1` it is 12.6 µM [falling, partial curve].
With `CCOC(=O)C1CCN(C(=O)c2ccc3c(=O)n4nc(Nc5cc(C)ccc5C)sc4nc3c2)CC1`, the half-maximal activity concentration (AC50) was 39.8 µM [falling, single point].
Under `CCOc1cccc(C2c3c(-c4cc(C)ccc4O)n[nH]c3C(=O)N2Cc2ccco2)c1` (stereo unspecified) stands 31.6 µM [falling, single point]; under `CC(C)(C)NC(=O)C(c1ccco1)N(C(=O)Cn1nnc(-c2ccc(F)cc2)n1)c1ccccc1F` (stereo unspecified), 12.6 µM [falling, partial curve].
For the molecule `CCn1cc(C(=O)N2CCN(c3ccc(C(C)=O)cc3)CC2)c2cc(OC)c(OC)cc2c1=O`, the AC50 was 0.794 µM [rising, full curve, poor fit].
As for `Cc1cc(NC(=O)c2c(F)c(F)c(F)c(F)c2F)no1`, the AC50 is 20 µM [falling, partial curve].
Consider `Cc1ccc(NC(=O)Cn2c(=O)oc3cc(S(=O)(=O)NCc4ccccc4)ccc32)cc1`, for which the AC50 is 12.6 µM [falling, partial curve].
With `CCOc1ccc(CCNC(=O)CN2N=C(c3ccccc3)CCC2=O)cc1OCC`, the AC50 was 3.98 µM [rising, full curve].
Under `Cc1cccc(N2CCN(c3cccc(C)c3)C2c2cccnc2)c1` stands 10 µM [falling, partial curve]; under `Cc1ccc2nc(N(Cc3cccnc3)C(=O)CCS(=O)(=O)c3ccccc3)sc2c1`, 39.8 µM [falling, single point].
As to `Cc1cc2nc(-c3ccc(NC(=O)C(C)C)cc3)oc2cc1C`, the AC50 was 0.398 µM [rising, partial curve, poor fit].
Under `Cc1ccc(CN(Cc2ccco2)C(=O)COc2ccc(C(C)C)cc2)cc1` stands 6.31 µM [falling, full curve]; under `CCOC(=O)c1cc(C)n(CC2CCC(C(=O)Nc3ccc(C)c(F)c3)CC2)c1C` (stereo unspecified), 7.94 µM [falling, full curve]; under `Cc1csc(NC(=O)CSc2nc(C(C)C)nc3c2c(=O)n(C)c(=O)n3C)n1`, 12.6 µM [falling, partial curve].
As for `COc1ccc(-n2c(C)cc(C(=O)CSc3nnc(-c4ccoc4C)n3C)c2C)cc1`, the AC50 was 25.1 µM [falling, single point].
Under `CN(C)CCCN1c2ccccc2CCc2ccc(Cl)cc21` stands 39.8 µM [falling, single point].
